From US11786471B2, “Complex disintegrant system for oral solid preparation and oral solid preparation comprising said complex disintegrant system” (WUHAN LL SCIENCE AND TECHNOLOGY DEVELOPMENT CO., LTD., priority 2016, dated 2023)
Some results were stated once for a whole list of compounds, not compound by compound.

Test system: spontaneously hypertensive rats
Assay: Antihypertensive efficacy test in spontaneously hypertensive rats: systolic blood pressure change
Format: in vivo, rat
Settings: SHR, intragastric, 1 mg/kg
Procedure: 12-week-old spontaneously hypertensive rats (hereinafter referred to as SHR, purchased from Beijing Weitong Lihua Experimental Animal Technology Co., Ltd.) were anesthetized with 2.5% sodium pentobarbital for intraperitoneal injection. After that, the blood pressure sensing catheter of hypertension implant was inserted into their abdominal aorta, while the implant was fixed to the abdominal wall, and then postoperative daily care was performed after suturing. Rats with systolic blood pressure exceeding 160 mm Hg were divided into 3 groups (control group, QR01019 group and QR01019K group) wherein each group has 8 rats. The control group was administrated 0.5% sodium carboxymethylcellulose (hereinafter referred to as CMC-Na); QR01019 group and QR01019K group were respectively administered, both of which were dissolved by 0.5% CMC-Na, by intragastric administration, at a dose of 1 mg/kg (calculated by the effective dose of Azilsartan) and a volume calculated by 4 mL/kg. The systolic blood pressure and heart rate of SHR were compared before and after administration (the systolic blood pressure and heart rate of SHR before administration as reference value), which were detected three times at each time point with the average value recorded.

SMILES: CCOc1nc2cccc(C(=O)OC(C)OC(=O)OCc3nc(C)c(C)nc3C)c2n1Cc1ccc(-c2ccccc2-c2noc(=O)[nH]2)cc1 (stereo not shown) [QR01019]
- time at which drug efficacy (systolic blood pressure decrease) peaks after administration: 5 to 7 h
